Consider seven molecules from article PMC5998130.

By UniProt entry, the sequences of proteins in these tests, tags left out.
UniProt Q92793: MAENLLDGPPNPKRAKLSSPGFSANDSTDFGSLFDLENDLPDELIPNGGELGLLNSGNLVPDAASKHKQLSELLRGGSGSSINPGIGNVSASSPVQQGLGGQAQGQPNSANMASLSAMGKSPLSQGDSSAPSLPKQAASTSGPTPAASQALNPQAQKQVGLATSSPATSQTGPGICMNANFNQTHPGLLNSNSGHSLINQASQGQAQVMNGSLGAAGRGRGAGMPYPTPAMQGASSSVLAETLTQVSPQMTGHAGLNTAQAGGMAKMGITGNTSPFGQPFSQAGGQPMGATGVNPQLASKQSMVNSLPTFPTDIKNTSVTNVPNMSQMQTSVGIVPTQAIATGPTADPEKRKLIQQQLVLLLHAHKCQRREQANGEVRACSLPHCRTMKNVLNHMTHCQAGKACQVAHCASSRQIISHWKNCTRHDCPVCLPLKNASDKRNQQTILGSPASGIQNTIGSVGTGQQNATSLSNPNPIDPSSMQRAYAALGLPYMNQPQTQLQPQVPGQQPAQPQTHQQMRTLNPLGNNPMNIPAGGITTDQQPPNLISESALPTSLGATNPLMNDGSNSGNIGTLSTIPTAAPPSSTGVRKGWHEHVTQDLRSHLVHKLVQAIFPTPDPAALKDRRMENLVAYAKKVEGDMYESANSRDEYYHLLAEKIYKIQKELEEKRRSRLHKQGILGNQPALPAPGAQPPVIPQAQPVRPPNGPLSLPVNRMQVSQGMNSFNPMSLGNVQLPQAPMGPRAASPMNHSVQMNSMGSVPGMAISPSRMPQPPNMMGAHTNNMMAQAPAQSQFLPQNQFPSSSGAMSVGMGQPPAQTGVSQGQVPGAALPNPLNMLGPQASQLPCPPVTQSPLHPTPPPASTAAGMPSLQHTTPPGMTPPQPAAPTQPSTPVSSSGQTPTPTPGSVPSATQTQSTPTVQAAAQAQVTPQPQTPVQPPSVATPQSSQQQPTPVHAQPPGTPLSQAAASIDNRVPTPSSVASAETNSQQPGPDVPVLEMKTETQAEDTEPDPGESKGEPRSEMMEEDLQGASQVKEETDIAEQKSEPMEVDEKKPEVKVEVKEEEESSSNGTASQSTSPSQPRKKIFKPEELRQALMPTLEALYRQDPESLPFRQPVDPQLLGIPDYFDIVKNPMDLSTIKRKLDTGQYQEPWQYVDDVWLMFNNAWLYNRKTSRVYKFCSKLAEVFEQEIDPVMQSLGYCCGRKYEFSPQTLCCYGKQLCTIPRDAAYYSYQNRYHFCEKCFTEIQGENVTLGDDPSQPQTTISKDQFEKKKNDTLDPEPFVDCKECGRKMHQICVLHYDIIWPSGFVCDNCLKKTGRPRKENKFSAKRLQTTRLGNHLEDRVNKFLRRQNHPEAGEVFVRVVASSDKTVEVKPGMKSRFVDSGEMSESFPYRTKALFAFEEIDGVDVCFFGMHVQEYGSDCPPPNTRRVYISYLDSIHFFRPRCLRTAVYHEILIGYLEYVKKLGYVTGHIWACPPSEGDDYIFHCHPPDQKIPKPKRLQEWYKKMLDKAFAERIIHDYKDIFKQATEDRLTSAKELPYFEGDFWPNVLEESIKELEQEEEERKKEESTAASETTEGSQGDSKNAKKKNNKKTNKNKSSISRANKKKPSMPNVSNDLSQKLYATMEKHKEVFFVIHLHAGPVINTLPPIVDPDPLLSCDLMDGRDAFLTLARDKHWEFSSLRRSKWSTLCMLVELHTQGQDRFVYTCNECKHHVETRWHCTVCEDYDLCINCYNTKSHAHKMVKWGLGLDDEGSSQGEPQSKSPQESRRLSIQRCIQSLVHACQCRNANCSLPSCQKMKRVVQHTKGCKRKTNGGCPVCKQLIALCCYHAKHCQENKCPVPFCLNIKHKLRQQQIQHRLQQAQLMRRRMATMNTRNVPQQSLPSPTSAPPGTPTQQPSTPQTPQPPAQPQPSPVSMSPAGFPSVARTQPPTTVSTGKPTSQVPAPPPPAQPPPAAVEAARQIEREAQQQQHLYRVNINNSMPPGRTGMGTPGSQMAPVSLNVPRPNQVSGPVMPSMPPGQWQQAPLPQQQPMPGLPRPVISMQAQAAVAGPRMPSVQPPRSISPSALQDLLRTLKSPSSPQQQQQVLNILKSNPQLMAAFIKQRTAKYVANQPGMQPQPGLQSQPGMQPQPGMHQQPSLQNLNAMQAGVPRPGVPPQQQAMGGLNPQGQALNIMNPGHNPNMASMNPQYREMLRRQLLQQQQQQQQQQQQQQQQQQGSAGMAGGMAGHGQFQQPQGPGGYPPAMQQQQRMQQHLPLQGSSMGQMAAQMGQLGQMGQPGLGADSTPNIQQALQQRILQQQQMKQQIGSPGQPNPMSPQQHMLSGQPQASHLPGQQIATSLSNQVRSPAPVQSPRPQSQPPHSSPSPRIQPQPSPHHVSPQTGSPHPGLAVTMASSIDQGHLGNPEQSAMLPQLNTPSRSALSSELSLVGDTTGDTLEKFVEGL

The target of experiment [1] is T1, Estrogen Receptor alpha (ERα) (human (endogenous in MCF7, human PDX tumours and human breast tumours)), P03372. Briefly: affinity purification with mass spectrometry; qPLEX-RIME: endogenous ERα precipitated from cryosections of five human breast cancer tumours (ERα positive, PR positive, Her2 negative), double crosslinking, against matched IgG pull-downs. The note with it: remark: other sources report otherwise.

The target of experiment [2] is T1, Estrogen Receptor alpha (ERα) (human …). Briefly: affinity purification with mass spectrometry; qPLEX-RIME: endogenous ERα precipitated (sc-543, Protein A Dynabeads) from asynchronous MCF7 cells, single crosslinking with 1% FA, sonicated nuclei; TMT-10plex, MultiNotch MS3; five replicates against matched IgG controls. The note with it: remark: other sources report otherwise.

Experiment [3] has the same target. Put plainly: affinity purification with mass spectrometry; qPLEX-RIME: endogenous ERα precipitated from MCF7 cells, double crosslinking (2 mM DSG then 1% FA), compared with single crosslinking. The note with it: remark: other sources report otherwise.
Substrate in experiment [4]: CBP (CREB-binding protein) (human (endogenous in MCF7, human PDX tumours and human breast tumours)) (UniProt Q92793)
Briefly: affinity purification with mass spectrometry; qPLEX-RIME: endogenous CBP precipitated (Diagenode C15410224) from MCF7 cells, double crosslinking (DSG, FA), against IgG controls.

For experiment [5], the target named is Estrogen Receptor alpha (ERα) (human (endogenous in MCF7, human PDX tumours and human breast tumours)) (UniProt P03372). Briefly: affinity purification with mass spectrometry; qPLEX-RIME: endogenous ERα precipitated (sc-543, Protein A Dynabeads) from asynchronous MCF7 cells, single crosslinking with 1% FA, sonicated nuclei; TMT-10plex, MultiNotch MS3; five replicates against matched IgG controls.

For experiment [6] the target is unchanged. Put plainly: affinity purification with mass spectrometry; qPLEX-RIME: endogenous ERα precipitated from MCF7 cells, double crosslinking (2 mM DSG then 1% FA), compared with single crosslinking.
For experiment [7] the target is unchanged. Put plainly: affinity purification with mass spectrometry; qPLEX-RIME: endogenous ERα precipitated from MCF7 cells treated with vehicle (ethanol, 24 h) or 100 nM OHT for 2 h, 6 h and 24 h, double crosslinking, 3 x 10plex, against IgG controls; values corrected for the amount of ERα.
Experiment [8] has the same target. Put plainly: affinity purification with mass spectrometry; qPLEX-RIME: endogenous ERα precipitated from cryosections (30 µm) of three ER positive human PDX tumours (HCI-003, HCI-005, HCI-006), double crosslinking, against matched IgG pull-downs.

Results are given in words; binding and its absence hold for the method and conditions named. In cells and extracts the contact can be indirect. Here binding means that the protein was enriched with, or labelled near, the bait; the list need not be complete.

B1: FOXA1, P55317 1-472 (protein)
chain: MLGTVKMEGHETSDWNSYYADTQEAYSSVPVSNMNSGLGSMNSMNTYMTMNTMTTSGNMTPASFNMSYANPGLGAGLSPGAVAGMPGGSAGAMNSMTAAGVTAMGTALSPSGMGAMGAQQAASMNGLGPYAAAMNPCMSPMAYAPSNLGRSRAGGGGDAKTFKRSYPHAKPPYSYISLITMAIQQAPSKMLTLSEIYQWIMDLFPYYRQNQQRWQNSIRHSLSFNDCFVKVARSPDKPGKGSYWTLHPDSGNMFENGCYLRRQKRFKCEKQPGAGGGGGSGSGGSGAKGGPESRKDPSGASNPSADSPLHRGVHGKTGQLEGAPAPGPAASPQTLDHSGATATGGASELKTPASSTAPPISSGPGALASVPASHPAHGLAPHESQLHLKGDPHYSFNHPFSINNLMSSSEQQHKLDFKAYEQALQYSPYGSTLPASLPLGSASVTTRSPIEPSALEPAYYQGVYSRPVLNTS
B1: the binding entry in experiment [1], in experiment [2] and in experiment [3] was “binds” in each case.

B2: transcription factor JunB (protein, UniProt P17275 1-347)
chain: MCTKMEQPFYHDDSYTATGYGRAPGGLSLHDYKLLKPSLAVNLADPYRSLKAPGARGPGPEGGGGGSYFSGQGSDTGASLKLASSELERLIVPNSNGVITTTPTPPGQYFYPRGGGSGGGAGGAGGGVTEEQEGFADGFVKALDDLHKMNHVTPPNVSLGATGGPPAGPGGVYAGPEPPPVYTNLSSYSPASASSGGAGAAVGTGSSYPTTTISYLPHAPPFAGGHPAQLGLGRGASTFKEEPQTVPEARSRDATPPVSPINMEDQERIKVERKRLRNRLAATKCRKRKLERIARLEDKVKTLKAENAGLSSTAGLLREQVAQLKQKVMTHVSNGCQLLLGVKGHAF
Turning to B2, the binding result in experiment [4] is listed as “binds”.

B3: TRIM24 (protein, UniProt O15164 1-1050)
chain: MEVAVEKAVAAAAAASAAASGGPSAAPSGENEAESRQGPDSERGGEAARLNLLDTCAVCHQNIQSRAPKLLPCLHSFCQRCLPAPQRYLMLPAPMLGSAETPPPVPAPGSPVSGSSPFATQVGVIRCPVCSQECAERHIIDNFFVKDTTEVPSSTVEKSNQVCTSCEDNAEANGFCVECVEWLCKTCIRAHQRVKFTKDHTVRQKEEVSPEAVGVTSQRPVFCPFHKKEQLKLYCETCDKLTCRDCQLLEHKEHRYQFIEEAFQNQKVIIDTLITKLMEKTKYIKFTGNQIQNRIIEVNQNQKQVEQDIKVAIFTLMVEINKKGKALLHQLESLAKDHRMKLMQQQQEVAGLSKQLEHVMHFSKWAVSSGSSTALLYSKRLITYRLRHLLRARCDASPVTNNTIQFHCDPSFWAQNIINLGSLVIEDKESQPQMPKQNPVVEQNSQPPSGLSSNQLSKFPTQISLAQLRLQHMQQQVMAQRQQVQRRPAPVGLPNPRMQGPIQQPSISHQQPPPRLINFQNHSPKPNGPVLPPHPQQLRYPPNQNIPRQAIKPNPLQMAFLAQQAIKQWQISSGQGTPSTTNSTSSTPSSPTITSAAGYDGKAFGSPMIDLSSPVGGSYNLPSLPDIDCSSTIMLDNIVRKDTNIDHGQPRPPSNRTVQSPNSSVPSPGLAGPVTMTSVHPPIRSPSASSVGSRGSSGSSSKPAGADSTHKVPVVMLEPIRIKQENSGPPENYDFPVVIVKQESDEESRPQNANYPRSILTSLLLNSSQSSTSEETVLRSDAPDSTGDQPGLHQDNSSNGKSEWLDPSQKSPLHVGETRKEDDPNEDWCAVCQNGGELLCCEKCPKVFHLSCHVPTLTNFPSGEWICTFCRDLSKPEVEYDCDAPSHNSEKKKTEGLVKLTPIDKRKCERLLLFLYCHEMSLAFQDPVPLTVPDYYKIIKNPMDLSTIKKRLQEDYSMYSKPEDFVADFRLIFQNCAEFNEPDSEVANAGIKLENYFEELLKNLYPEKRFPKPEFRNESEDNKFSDDSDDDFVQPRKKRLKSIEERQLLK
For B3, the binding result in experiment [5] is reported as “binds”.

B4: NR2F2 (protein, UniProt P24468 1-414)
chain: MAMVVSTWRDPQDEVPGSQGSQASQAPPVPGPPPGAPHTPQTPGQGGPASTPAQTAAGGQGGPGGPGSDKQQQQQHIECVVCGDKSSGKHYGQFTCEGCKSFFKRSVRRNLSYTCRANRNCPIDQHHRNQCQYCRLKKCLKVGMRREAVQRGRMPPTQPTHGQFALTNGDPLNCHSYLSGYISLLLRAEPYPTSRFGSQCMQPNNIMGIENICELAARMLFSAVEWARNIPFFPDLQITDQVALLRLTWSELFVLNAAQCSMPLHVAPLLAAAGLHASPMSADRVVAFMDHIRIFQEQVEKLKALHVDSAEYSCLKAIVLFTSDACGLSDVAHVESLQEKSQCALEEYVRSQYPNQPTRFGKLLLRLPSLRTVSSSVIEQLFFVRLVGKTPIETLIRDMLLSGSSFNWPYMAIQ
Turning to B4, the binding result in experiment [6] was “binds”.

B5: NRIP1 (RIP140) (protein, UniProt P48552 1-1158)
chain: MTHGEELGSDVHQDSIVLTYLEGLLMHQAAGGSGTAVDKKSAGHNEEDQNFNISGSAFPTCQSNGPVLNTHTYQGSGMLHLKKARLLQSSEDWNAAKRKRLSDSIMNLNVKKEALLAGMVDSVPKGKQDSTLLASLLQSFSSRLQTVALSQQIRQSLKEQGYALSHDSLKVEKDLRCYGVASSHLKTLLKKSKVKDQKPDTNLPDVTKNLIRDRFAESPHHVGQSGTKVMSEPLSCAARLQAVASMVEKRASPATSPKPSVACSQLALLLSSEAHLQQYSREHALKTQNANQAASERLAAMARLQENGQKDVGSYQLPKGMSSHLNGQARTSSSKLMASKSSATVFQNPMGIIPSSPKNAGYKNSLERNNIKQAANNSLLLHLLKSQTIPKPMNGHSHSERGSIFEESSTPTTIDEYSDNNPSFTDDSSGDESSYSNCVPIDLSCKHRTEKSESDQPVSLDNFTQSLLNTWDPKVPDVDIKEDQDTSKNSKLNSHQKVTLLQLLLGHKNEENVEKNTSPQGVHNDVSKFNTQNYARTSVIESPSTNRTTPVSTPPLLTSSKAGSPINLSQHSLVIKWNSPPYVCSTQSEKLTNTASNHSMDLTKSKDPPGEKPAQNEGAQNSATFSASKLLQNLAQCGMQSSMSVEEQRPSKQLLTGNTDKPIGMIDRLNSPLLSNKTNAVEENKAFSSQPTGPEPGLSGSEIENLLERRTVLQLLLGNPNKGKSEKKEKTPLRDESTQEHSERALSEQILMVKIKSEPCDDLQIPNTNVHLSHDAKSAPFLGMAPAVQRSAPALPVSEDFKSEPVSPQDFSFSKNGLLSRLLRQNQDSYLADDSDRSHRNNEMALLESKNLCMVPKKRKLYTEPLENPFKKMKNNIVDAANNHSAPEVLYGSLLNQEELKFSRNDLEFKYPAGHGSASESEHRSWARESKSFNVLKQLLLSENCVRDLSPHRSNSVADSKKKGHKNNVTNSKPEFSISSLNGLMYSSTQPSSCMDNRTFSYPGVVKTPVSPTFPEHLGCAGSRPESGLLNGCSMPSEKGPIKWVITDAEKNEYEKDSPRLTKTNPILYYMLQKGGNSVTSRETQDKDIWREASSAESVSQVTAKEELLPTAETKASFFNLRSPYNSHMGNNASRPHSANGEVYGLLGSVLTIKKESE
For B5, the binding result in experiment [5] and in experiment [7] was “binds” in each case.

B6: NCOA5 (CIA) (protein, UniProt Q9HCD5 1-579)
chain: MNTAPSRPSPTRRDPYGFGDSRDSRRDRSPIRGSPRREPRDGRNGRDARDSRDIRDPRDLRDHRHSRDLRDHRDSRSVRDVRDVRDLRDFRDLRDSRDFRDQRDPMYDRYRDMRDSRDPMYRREGSYDRYLRMDDYCRRKDDSYFDRYRDSFDGRGPPGPESQSRAKERLKREERRREELYRQYFEEIQRRFDAERPVDCSVIVVNKQTKDYAESVGRKVRDLGMVVDLIFLNTEVSLSQALEDVSRGGSPFAIVITQQHQIHRSCTVNIMFGTPQEHRNMPQADAMVLVARNYERYKNECREKEREEIARQAAKMADEAILQERERGGPEEGVRGGHPPAIQSLINLLADNRYLTAEETDKIINYLRERKERLMRSSTDSLPGPISRQPLGATSGASLKTQPSSQPLQSGQVLPSATPTPSAPPTSQQELQAKILSLFNSGTVTANSSSASPSVAAGNTPNQNFSTAANSQPQQRSQASGNQPPSILGQGGSAQNMGPRPGAPSQGLFGQPSSRLAPASNMTSQRPVSSTGINFDNPSVQKALDTLIQSGPALSHLVSQTTAQMGQPQAPMGSYQRHY
Take B6: the binding entry in experiment [8] was “binds”.

B7: FOXK1, P85037 1-733 (protein)
chain: MAEVGEDSGARALLALRSAPCSPVLCAAAAAAAFPAAAPPPAPAQPQPPPGPPPPPPPPLPPGAIAGAGSSGGSSGVSGDSAVAGAAPALVAAAAASVRQSPGPALARLEGREFEFLMRQPSVTIGRNSSQGSVDLSMGLSSFISRRHLQLSFQEPHFYLRCLGKNGVFVDGAFQRRGAPALQLPKQCTFRFPSTAIKIQFTSLYHKEEAPASPLRPLYPQISPLKIHIPEPDLRSMVSPVPSPTGTISVPNSCPASPRGAGSSSYRFVQNVTSDLQLAAEFAAKAASEQQADTSGGDSPKDESKPPFSYAQLIVQAISSAQDRQLTLSGIYAHITKHYPYYRTADKGWQNSIRHNLSLNRYFIKVPRSQEEPGKGSFWRIDPASEAKLVEQAFRKRRQRGVSCFRTPFGPLSSRSAPASPTHPGLMSPRSGGLQTPECLSREGSPIPHDPEFGSKLASVPEYRYSQSAPGSPVSAQPVIMAVPPRPSSLVAKPVAYMPASIVTSQQPAGHAIHVVQQAPTVTMVRVVTTSANSANGYILTSQGAAGGSHDAAGAAVLDLGSEARGLEEKPTIAFATIPAAGGVIQTVASQMAPGVPGHTVTILQPATPVTLGQHHLPVRAVTQNGKHAVPTNSLAGNAYALTSPLQLLATQASSSAPVVVTRVCEVGPKEPAAAVAATATTTPATATTASASASSTGEPEVKRSRVEEPSGAVTTPAGVIAAAGPQGPGTGE
With B7, the binding entry in experiment [2] is recorded as “binds”.
